These are yes or no findings as the source states them, for the method shown. For part of these data: Binding seen in cells or lysates may run through a third protein. Some entries that bind do so weakly or less than the wild type.
Assays:
[1] = biological target: T1, PDCD5 of the in vitro binding assay (UniProt O14737); test: in vitro binding assay; Supplementary Fig. 10c; format not told in the text shown
T1 sequence: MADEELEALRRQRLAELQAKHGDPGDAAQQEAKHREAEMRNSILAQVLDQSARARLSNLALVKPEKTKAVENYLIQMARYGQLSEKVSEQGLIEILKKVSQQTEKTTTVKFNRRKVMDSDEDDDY

By UniProt entry, the sequences of proteins in these tests, tags left out.
UniProt P84022: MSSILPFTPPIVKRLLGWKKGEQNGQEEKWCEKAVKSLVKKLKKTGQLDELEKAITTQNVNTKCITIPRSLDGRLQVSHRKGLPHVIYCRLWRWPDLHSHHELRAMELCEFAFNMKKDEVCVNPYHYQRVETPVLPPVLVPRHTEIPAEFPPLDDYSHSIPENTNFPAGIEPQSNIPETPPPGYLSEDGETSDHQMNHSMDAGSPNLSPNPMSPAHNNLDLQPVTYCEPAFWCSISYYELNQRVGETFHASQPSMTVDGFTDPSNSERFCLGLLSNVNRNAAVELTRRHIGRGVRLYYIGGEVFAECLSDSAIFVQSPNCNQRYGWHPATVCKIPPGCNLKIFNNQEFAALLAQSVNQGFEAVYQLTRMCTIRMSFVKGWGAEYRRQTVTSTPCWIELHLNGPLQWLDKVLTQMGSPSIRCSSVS
UniProt P35222: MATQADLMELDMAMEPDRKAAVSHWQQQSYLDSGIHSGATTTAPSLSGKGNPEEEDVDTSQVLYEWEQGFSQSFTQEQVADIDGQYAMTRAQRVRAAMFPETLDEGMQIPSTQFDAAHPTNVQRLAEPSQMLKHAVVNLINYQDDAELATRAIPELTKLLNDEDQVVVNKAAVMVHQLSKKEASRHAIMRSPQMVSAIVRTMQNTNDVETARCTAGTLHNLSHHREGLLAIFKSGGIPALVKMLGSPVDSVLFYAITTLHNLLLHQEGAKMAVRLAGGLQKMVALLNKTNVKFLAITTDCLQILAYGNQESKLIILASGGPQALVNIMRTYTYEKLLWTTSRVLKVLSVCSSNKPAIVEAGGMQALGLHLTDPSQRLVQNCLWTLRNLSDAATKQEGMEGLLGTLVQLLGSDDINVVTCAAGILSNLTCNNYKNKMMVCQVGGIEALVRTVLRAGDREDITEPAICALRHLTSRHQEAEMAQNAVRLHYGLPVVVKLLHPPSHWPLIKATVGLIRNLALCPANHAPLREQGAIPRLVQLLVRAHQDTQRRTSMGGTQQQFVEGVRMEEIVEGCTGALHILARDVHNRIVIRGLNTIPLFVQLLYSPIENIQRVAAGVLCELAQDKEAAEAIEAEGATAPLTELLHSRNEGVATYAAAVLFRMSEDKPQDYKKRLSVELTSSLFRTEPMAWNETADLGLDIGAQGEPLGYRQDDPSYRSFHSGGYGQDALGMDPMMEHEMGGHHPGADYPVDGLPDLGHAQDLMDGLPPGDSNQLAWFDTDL
UniProt Q02248: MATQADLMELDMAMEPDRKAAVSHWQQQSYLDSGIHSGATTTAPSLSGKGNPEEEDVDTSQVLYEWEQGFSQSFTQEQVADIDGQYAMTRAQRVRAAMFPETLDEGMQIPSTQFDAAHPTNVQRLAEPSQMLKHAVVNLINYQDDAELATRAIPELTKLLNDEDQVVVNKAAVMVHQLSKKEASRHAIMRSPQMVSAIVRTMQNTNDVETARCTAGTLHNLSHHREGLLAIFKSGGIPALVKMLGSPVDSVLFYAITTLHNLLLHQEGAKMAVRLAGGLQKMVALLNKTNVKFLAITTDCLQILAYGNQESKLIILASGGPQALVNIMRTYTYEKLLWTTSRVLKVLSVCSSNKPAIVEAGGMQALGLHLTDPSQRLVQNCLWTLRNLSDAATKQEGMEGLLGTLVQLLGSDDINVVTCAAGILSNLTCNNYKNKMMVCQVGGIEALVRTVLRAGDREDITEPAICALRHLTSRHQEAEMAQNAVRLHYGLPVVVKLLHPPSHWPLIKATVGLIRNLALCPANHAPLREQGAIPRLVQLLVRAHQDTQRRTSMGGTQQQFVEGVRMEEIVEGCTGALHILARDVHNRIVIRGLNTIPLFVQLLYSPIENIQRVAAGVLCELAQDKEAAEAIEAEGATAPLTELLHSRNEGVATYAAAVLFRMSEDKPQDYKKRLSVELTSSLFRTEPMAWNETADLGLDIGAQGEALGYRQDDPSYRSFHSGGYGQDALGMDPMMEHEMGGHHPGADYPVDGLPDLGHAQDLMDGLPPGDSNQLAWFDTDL

[2] = biological target: T2, programmed cell death 5 (PDCD5), endogenous in C22 mouse club cells (mouse (endogenous in C22)) (UniProt P56812); test: co-IP; endogenous proteins, nuclear extracts of C22 cells, with or without TGF-β1; protein A/G agarose beads; immunoblot
T2 sequence: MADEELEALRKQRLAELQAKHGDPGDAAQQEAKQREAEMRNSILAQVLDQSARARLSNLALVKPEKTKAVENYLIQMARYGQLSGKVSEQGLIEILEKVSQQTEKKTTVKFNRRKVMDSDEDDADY

binding [1]	Substance	binding [2]
no binding	Smad3 of the in vitro binding assay (from UniProt P84022 1-425)	
binds	β-catenin of the in vitro binding assay (from UniProt P35222 1-781)	
	β-catenin, endogenous in mouse club cells (from UniProt Q02248 1-781)	binds
